No constants are given. Whether binding was seen depends on the method and setting. Some results given as binding are weak or reduced against the parent protein; the word gives no strength.

For the assay, the target named is T1, Subtilase JP170 (Bacillus sp. JP170).
T1 sequence: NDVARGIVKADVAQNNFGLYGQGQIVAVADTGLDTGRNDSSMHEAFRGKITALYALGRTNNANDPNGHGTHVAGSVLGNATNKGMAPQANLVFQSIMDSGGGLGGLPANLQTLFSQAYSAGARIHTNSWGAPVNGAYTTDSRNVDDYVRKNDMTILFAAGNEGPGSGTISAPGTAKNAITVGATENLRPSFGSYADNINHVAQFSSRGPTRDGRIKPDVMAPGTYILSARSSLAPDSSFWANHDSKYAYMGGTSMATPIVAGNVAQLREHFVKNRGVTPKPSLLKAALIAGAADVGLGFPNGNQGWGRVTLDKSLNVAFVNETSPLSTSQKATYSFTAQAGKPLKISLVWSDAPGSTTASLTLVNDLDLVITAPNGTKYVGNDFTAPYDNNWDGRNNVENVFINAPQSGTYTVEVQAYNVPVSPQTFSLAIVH
The assay can be described thus: X-ray crystal structure of the complex.

B1: Cl2 inhibitor (protein, UniProt P01053 2-84, looked up)
chain: SSVEKKPEGVNTGAGDRHNLKTEWPELVGKSVEEAKKVILQDKPEAQIIVLPVGTIVTMEYRIDRVRLFVDKLDNIAQVPRVG
Regarding B1, the binding result is given as “binds”.

These data come from EP2163616A2.
